# Test results published in the supplement of paper PMC10849652.
# By UniProt entry, the sequences of proteins in these tests, tags left out. Where a name states a change or a piece, a line headed by the entry shows the natural chain unless it says otherwise.
# UniProt Q8TF01: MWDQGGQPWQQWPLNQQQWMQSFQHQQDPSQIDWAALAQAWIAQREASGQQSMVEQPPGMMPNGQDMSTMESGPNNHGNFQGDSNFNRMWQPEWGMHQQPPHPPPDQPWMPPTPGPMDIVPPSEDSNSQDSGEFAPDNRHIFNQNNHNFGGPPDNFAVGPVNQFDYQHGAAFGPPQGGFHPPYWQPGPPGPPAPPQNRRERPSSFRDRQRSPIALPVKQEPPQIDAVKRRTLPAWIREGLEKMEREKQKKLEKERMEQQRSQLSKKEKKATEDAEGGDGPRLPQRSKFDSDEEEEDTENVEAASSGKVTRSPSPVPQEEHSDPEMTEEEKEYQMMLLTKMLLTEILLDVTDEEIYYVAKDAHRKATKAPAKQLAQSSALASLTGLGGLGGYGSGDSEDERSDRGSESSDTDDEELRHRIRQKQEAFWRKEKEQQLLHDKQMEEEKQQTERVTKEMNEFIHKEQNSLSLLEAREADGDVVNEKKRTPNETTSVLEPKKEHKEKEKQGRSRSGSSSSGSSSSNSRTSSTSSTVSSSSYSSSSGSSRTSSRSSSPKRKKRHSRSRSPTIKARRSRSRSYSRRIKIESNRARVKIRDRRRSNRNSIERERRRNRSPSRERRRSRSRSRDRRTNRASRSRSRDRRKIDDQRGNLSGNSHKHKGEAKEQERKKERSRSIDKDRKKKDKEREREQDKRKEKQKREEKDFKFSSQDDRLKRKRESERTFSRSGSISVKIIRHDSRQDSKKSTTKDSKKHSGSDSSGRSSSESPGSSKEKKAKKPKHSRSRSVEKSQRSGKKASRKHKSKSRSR
# UniProt Q6PFW1: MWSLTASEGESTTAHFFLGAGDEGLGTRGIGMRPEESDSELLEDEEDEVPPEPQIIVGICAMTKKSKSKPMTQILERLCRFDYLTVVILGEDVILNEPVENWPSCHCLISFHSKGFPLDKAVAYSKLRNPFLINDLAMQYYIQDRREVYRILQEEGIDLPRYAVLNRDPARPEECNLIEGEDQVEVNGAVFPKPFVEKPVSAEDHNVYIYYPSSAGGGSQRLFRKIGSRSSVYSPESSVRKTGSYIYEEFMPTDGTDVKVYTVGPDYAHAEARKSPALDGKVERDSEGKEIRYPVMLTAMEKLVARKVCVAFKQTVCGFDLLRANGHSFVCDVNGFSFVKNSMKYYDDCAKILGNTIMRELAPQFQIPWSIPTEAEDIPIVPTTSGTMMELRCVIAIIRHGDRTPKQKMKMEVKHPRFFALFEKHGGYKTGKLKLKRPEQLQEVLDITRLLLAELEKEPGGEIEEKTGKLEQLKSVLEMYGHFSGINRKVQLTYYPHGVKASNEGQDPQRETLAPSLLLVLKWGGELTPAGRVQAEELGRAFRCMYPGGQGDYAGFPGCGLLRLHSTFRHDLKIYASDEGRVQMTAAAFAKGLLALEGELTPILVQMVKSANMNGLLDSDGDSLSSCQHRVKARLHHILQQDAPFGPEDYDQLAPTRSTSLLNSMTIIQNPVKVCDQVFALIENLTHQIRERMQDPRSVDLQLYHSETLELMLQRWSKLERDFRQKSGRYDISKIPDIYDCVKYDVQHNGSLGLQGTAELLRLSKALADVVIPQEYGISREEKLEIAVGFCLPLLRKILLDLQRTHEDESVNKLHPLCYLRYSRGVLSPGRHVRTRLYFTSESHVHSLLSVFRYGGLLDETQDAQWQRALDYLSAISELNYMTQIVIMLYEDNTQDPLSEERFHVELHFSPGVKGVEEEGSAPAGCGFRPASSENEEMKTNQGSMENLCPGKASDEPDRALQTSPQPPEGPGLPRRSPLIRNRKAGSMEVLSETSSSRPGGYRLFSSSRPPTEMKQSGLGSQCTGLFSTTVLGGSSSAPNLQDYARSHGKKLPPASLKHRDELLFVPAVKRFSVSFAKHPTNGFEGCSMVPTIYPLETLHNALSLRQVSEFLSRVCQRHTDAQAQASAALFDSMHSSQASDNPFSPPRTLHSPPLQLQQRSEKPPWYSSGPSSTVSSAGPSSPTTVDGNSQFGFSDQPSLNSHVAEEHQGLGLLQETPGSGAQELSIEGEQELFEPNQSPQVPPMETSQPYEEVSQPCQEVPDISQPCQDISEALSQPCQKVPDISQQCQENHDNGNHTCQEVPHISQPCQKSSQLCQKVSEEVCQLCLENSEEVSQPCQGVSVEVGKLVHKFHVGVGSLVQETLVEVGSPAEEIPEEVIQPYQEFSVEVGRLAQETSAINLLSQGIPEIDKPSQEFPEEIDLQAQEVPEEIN
# UniProt Q8IWE5: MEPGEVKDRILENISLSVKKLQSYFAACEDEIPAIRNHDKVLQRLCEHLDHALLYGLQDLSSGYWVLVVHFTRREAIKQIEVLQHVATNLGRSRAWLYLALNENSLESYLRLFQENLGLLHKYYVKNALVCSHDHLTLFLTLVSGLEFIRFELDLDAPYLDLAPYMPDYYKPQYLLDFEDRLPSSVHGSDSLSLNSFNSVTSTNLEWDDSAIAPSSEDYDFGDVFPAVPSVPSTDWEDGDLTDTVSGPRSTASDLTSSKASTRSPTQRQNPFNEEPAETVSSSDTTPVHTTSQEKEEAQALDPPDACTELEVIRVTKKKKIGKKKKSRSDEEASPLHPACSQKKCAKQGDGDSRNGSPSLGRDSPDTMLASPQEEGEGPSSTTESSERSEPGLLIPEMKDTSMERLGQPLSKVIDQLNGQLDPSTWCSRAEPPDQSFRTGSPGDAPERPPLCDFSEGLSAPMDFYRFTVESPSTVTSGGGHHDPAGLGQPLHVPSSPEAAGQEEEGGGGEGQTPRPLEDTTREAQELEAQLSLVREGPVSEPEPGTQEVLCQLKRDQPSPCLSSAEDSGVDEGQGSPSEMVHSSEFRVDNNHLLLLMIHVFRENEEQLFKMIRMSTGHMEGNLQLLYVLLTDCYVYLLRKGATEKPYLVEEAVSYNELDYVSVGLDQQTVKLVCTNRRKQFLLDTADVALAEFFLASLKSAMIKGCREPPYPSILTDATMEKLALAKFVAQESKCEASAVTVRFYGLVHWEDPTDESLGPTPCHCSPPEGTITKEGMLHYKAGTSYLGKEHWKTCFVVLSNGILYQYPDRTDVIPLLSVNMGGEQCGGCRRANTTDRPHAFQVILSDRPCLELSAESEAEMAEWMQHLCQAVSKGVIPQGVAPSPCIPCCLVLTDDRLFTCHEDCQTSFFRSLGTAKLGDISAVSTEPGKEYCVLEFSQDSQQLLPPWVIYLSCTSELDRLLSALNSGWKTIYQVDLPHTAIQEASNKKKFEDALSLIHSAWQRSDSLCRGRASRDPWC
# UniProt Q9H2H8: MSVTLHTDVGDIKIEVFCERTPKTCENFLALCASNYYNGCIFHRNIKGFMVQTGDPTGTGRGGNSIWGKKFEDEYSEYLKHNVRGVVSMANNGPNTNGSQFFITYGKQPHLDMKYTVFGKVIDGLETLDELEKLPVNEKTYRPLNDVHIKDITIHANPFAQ
# UniProt P0DPB5: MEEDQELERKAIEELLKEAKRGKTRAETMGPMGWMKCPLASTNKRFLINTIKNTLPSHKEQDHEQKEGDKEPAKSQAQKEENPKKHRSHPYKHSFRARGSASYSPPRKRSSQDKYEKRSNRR
# UniProt Q96HA1, whole entry, looked up: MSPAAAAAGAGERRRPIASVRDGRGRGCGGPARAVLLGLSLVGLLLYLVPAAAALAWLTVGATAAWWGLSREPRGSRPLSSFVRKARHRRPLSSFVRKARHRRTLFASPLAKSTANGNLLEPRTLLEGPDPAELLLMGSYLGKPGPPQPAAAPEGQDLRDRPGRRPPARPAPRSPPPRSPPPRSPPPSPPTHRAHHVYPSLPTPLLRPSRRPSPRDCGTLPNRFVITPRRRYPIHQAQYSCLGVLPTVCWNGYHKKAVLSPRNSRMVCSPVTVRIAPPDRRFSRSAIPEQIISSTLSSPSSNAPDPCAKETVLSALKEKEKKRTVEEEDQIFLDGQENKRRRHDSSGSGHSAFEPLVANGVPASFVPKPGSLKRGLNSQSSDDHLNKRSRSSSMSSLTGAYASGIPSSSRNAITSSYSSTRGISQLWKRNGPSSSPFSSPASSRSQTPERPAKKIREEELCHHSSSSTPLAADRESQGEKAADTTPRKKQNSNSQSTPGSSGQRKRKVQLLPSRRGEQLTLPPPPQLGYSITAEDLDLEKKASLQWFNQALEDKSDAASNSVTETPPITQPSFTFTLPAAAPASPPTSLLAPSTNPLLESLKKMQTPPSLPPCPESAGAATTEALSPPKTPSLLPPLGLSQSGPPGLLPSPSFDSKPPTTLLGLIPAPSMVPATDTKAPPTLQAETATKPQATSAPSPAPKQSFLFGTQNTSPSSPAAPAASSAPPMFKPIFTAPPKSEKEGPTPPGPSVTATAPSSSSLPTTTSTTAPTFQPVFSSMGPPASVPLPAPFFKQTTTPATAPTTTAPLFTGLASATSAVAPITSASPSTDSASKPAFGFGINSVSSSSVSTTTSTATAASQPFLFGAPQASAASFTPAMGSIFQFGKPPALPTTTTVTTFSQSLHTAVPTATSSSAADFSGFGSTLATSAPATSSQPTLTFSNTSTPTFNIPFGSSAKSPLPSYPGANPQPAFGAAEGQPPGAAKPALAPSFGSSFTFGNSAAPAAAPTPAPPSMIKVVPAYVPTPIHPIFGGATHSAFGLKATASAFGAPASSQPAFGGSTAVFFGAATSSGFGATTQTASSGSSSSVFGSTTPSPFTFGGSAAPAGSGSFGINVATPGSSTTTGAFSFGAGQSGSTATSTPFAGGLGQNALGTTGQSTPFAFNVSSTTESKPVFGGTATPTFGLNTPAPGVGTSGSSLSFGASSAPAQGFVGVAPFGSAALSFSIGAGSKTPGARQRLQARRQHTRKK
# UniProt Q04941: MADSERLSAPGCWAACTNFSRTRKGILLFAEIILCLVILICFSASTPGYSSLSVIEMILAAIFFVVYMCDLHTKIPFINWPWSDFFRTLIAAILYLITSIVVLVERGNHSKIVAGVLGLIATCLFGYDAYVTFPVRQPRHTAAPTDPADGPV
# UniProt Q6EEV4: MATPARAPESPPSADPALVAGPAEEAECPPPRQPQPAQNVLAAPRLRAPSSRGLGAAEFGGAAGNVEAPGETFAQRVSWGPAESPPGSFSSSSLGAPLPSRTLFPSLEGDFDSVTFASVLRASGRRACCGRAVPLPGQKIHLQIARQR
# UniProt Q8NAT1: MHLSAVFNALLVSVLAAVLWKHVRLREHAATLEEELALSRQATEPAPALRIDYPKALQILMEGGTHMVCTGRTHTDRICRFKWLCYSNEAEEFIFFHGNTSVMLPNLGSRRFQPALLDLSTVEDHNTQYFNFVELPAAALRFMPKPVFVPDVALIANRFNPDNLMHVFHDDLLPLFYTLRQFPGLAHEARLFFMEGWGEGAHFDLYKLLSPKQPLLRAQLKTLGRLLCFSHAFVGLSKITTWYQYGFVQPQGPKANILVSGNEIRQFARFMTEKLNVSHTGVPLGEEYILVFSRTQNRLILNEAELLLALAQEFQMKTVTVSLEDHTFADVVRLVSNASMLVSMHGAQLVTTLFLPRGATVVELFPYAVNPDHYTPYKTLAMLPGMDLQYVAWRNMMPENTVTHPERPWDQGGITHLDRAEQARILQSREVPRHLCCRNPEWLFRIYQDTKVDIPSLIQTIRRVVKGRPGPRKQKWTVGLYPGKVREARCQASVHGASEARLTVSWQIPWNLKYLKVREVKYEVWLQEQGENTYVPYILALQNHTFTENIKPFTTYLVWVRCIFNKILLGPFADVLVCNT
# UniProt P11086: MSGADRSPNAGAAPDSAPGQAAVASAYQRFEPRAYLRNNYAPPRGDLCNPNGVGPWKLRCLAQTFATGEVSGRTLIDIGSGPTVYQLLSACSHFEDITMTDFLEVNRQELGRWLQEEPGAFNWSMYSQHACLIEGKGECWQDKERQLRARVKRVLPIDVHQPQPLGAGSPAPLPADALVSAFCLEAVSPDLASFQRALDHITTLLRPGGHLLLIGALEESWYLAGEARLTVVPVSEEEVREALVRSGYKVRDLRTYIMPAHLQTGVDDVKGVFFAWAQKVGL
# UniProt P55058, whole entry, looked up: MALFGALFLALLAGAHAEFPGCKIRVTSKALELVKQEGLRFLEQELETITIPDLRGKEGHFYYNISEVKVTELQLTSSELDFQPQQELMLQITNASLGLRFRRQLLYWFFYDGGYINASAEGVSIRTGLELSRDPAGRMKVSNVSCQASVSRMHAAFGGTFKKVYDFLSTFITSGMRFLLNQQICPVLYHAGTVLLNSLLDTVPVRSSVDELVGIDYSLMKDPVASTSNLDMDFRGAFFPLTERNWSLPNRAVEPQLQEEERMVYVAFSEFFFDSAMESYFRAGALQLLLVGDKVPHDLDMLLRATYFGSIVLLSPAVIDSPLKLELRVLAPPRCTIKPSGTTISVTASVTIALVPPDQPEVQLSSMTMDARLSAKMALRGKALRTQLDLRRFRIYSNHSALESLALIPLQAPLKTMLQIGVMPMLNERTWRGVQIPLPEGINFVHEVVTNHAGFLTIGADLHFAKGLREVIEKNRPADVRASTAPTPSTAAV
# UniProt Q9NR33: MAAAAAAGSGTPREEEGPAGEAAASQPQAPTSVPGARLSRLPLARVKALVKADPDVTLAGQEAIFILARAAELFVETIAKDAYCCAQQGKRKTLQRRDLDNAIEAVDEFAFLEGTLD
# The other results are listed elsewhere or left out.
# Columns and labels:
# Assay in all cases: log2 fold change, soluble protein after heating vs DMSO (PISA); higher = thermal stabilisation; K562 cells, 10 uM, 30 min; active = over 0.2 and 3.5 SD of the protein, either way, in both replicates (recomputed)
# [1] = compound: CC1=C(C=C(C=C1)NC(=O)C2=CC(=CC=C2)C(C)(C)C#N)NC3=CC4=C(C=C3)N=CN(C4=O)C
# Method in brief: (§1)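 Quantification of soluble protein used TMTpro 16plex LC-MS/MS, with channel sums equalised. Samples were the supernatant after 21,000xg for 90 min of pooled aliquots from K562 cells (2×10^6 cells/mL) treated with 10 μM compound for 30 min, heated for 3 min over 48°C-58°C, and extracted in PBS with 0.5% NP-40 at 4°C. Values, from duplicates, describe thermal stability against control samples on a log2 fold-change scale.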
# [2] = compound: CC1=C(C=C(C=C1)NC(=O)C2=CC(=CC=C2)N(C)C)NC(=O)C3=CC=C(C=C3)O
# Method in brief: as §1
# [3] = compound: CC1=CC=C(C=C1)SC2=C3C=C(SC3=CN=C2)C(=O)N
# Method in brief: as §1
# [4] = compound: CC1=NC(=CC=C1)C2=C(N=C(N2)C(C)(C)C)C3=CC4=NC=CN=C4C=C3
# Method in brief: as §1
# [5] = compound: CCCCN(Cc1ccc(C(=O)NO)cc1)C(=O)Nc1ccccc1 [Nexturastat A]
# Method in brief: as §1
# [6] = compound: CCCS(=O)(=O)Nc1ccc(F)c(C(=O)c2c[nH]c3ncc(-c4ccc(Cl)cc4)cc23)c1F [vemurafenib]
# Method in brief: as §1
# [7] = compound: CCCS(=O)(=O)Nc1ccc(F)c(C(=O)c2c[nH]c3ncc(Cl)cc23)c1F
# Method in brief: as §1
# [8] = compound: CCCc1cc(C)[nH]c(=O)c1CNC(=O)c1cc(-c2ccnc(N3CCN(C)CC3)c2)cc2c1cnn2C(C)C
# Method in brief: as §1
# [9] = compound: CCN(CC)Cc1ccc2cc(COC(=O)Nc3ccc(C(=O)NO)cc3)ccc2c1 [givinostat]
# Method in brief: as §1
# [10] = compound: CCN(CCCOc1ccc2c(Nc3cc(CC(=O)Nc4cccc(F)c4)[nH]n3)ncnc2c1)CCOP(=O)(O)O [barasertib]
# Method in brief: as §1
Target,log2 fold change [1],log2 fold change [2],log2 fold change [3],log2 fold change [4],log2 fold change [5],log2 fold change [6],log2 fold change [7],log2 fold change [8],log2 fold change [9],log2 fold change [10]
PNISR (UniProt Q8TF01),inactive: -0.053,inactive: -0.035,inactive: 0.013,inactive: -0.009,inactive: 0,inactive: -0.017,inactive: 0.021,inactive: -0.001,inactive: -0.014,inactive: -0.005
PNPLA8 (UniProt Q9NP80),inactive: 0.001,inactive: 0.026,inactive: 0.007,inactive: -0.027,inactive: 0.041,inactive: -0.002,inactive: -0.005,inactive: 0.084,inactive: 0.067,inactive: 0.066
POR (UniProt P16435),inactive: 0.033,inactive: 0,inactive: 0.003,inactive: -0.001,inactive: -0.048,inactive: 0.029,inactive: 0.008,inactive: 0.027,inactive: 0.003,inactive: 0.001
PPIP5K1 (UniProt Q6PFW1),inactive: 0.082,inactive: -0.024,inactive: 0.003,inactive: 0.003,inactive: -0.138,inactive: -0.007,inactive: 0.045,inactive: -0.045,inactive: -0.094,inactive: -0.025
PLEKHM2 (UniProt Q8IWE5),inactive: 0.064,inactive: 0.035,inactive: 0.052,inactive: -0.011,inactive: -0.028,inactive: 0.075,inactive: 0.124,inactive: 0.038,inactive: 0.177,inactive: 0.076
PPIL3 isoform 2 (UniProt Q9H2H8),inactive: 0.037,inactive: 0,inactive: -0.004,inactive: -0.112,inactive: 0.307,inactive: 0.106,inactive: 0.036,–,inactive: 0.042,inactive: 0.021
POLR1D (UniProt P0DPB5),inactive: -0.006,inactive: 0.083,inactive: 0.035,inactive: -0.113,inactive: 0.175,–,inactive: -0.517,–,inactive: -0.13,inactive: 0.314
PNKP (UniProt Q96T60),inactive: -0.104,inactive: -0.049,inactive: 0.018,inactive: 0.07,–,inactive: 0.197,inactive: -0.066,–,–,–
POGZ (UniProt Q7Z3K3),inactive: 0.037,inactive: -0.025,inactive: 0.028,inactive: 0.008,inactive: -0.127,inactive: 0.122,inactive: -0.024,–,inactive: -0.142,–
PMS2 (UniProt P54278),inactive: 0.319,inactive: 0.334,–,inactive: 0.039,inactive: -0.08,inactive: 0.229,–,–,inactive: 0.174,–
POLB (UniProt P06746),inactive: 0.086,inactive: -0.211,inactive: 0.009,–,inactive: 0.189,–,inactive: 0.178,–,inactive: -0.026,–
POM121 (UniProt Q96HA1),inactive: -0.045,inactive: -0.032,inactive: -0.056,inactive: -0.074,inactive: 0.117,inactive: -0.039,inactive: 0.007,–,inactive: 0.119,inactive: 0.111
PLVAP (UniProt Q9BX97),inactive: 0.275,inactive: -0.063,inactive: 0.124,–,inactive: -0.474,inactive: 0.22,inactive: -0.031,inactive: 0.097,inactive: 0.032,inactive: 0.125
PLP2 (UniProt Q04941),inactive: -0.083,–,inactive: -0.072,inactive: -0.103,inactive: 0.009,inactive: -0.109,inactive: -0.059,inactive: 0.022,inactive: -0.356,inactive: 0.325
POLR2M (UniProt Q6EEV4),inactive: 0.091,–,inactive: -0.062,inactive: 0.046,inactive: -0.403,inactive: 0.017,inactive: -0.066,inactive: -0.073,inactive: -0.105,inactive: -0.055
POMGNT2 (UniProt Q8NAT1),inactive: -0.011,–,inactive: 0.004,inactive: -0.193,–,inactive: 0.002,inactive: 0.011,inactive: -0.03,inactive: -0.056,inactive: 0.047
POT1 (UniProt Q9NUX5),inactive: -0.132,inactive: -0.006,–,–,inactive: 0.018,–,–,inactive: -0.252,inactive: -0.389,inactive: 0.024
PNPLA4 (UniProt P41247),inactive: 0.418,inactive: -0.04,inactive: 0.409,inactive: 0.273,–,inactive: -0.093,inactive: -0.025,inactive: -0.277,active: 1.1,inactive: 0.042
PLG (UniProt P00747),inactive: -0.071,–,inactive: 0.122,inactive: 0.095,–,inactive: -0.02,inactive: -0.046,–,inactive: -0.081,inactive: 0.04
PNMT (UniProt P11086),inactive: -0.076,–,inactive: 0.072,–,–,–,inactive: 0.003,–,inactive: -0.035,–
PLTP (UniProt P55058),inactive: 0.148,–,inactive: 0.061,inactive: -0.317,inactive: 0.032,inactive: -0.099,inactive: -0.15,inactive: -0.009,inactive: -0.033,–
POM121C (UniProt A8CG34),inactive: -0.036,inactive: -0.089,–,inactive: 0.005,–,–,–,inactive: 0.106,inactive: 0.028,inactive: 0.152
PNN (UniProt Q9H307),inactive: -0.101,inactive: 0.084,inactive: 0.003,inactive: 0.011,inactive: 0.03,–,inactive: 0.04,inactive: 0.004,inactive: 0.121,inactive: 0.027
PPIP5K2 (UniProt H0Y9S9),inactive: -0.053,inactive: 0.014,inactive: -0.084,inactive: -0.088,inactive: 0.106,–,inactive: 0.096,inactive: 0.029,–,inactive: 0.042
POLE4 (UniProt Q9NR33),inactive: 0.071,–,inactive: 0.121,inactive: 0.008,inactive: -0.055,inactive: 0.098,inactive: 0.025,inactive: 0.017,inactive: 0.049,inactive: 0.039

# As a working copy, part of the list above.
Target,log2 fold change [1],log2 fold change [2],log2 fold change [3],log2 fold change [4],log2 fold change [5],log2 fold change [6],log2 fold change [7],log2 fold change [8],log2 fold change [9],log2 fold change [10]
POR (UniProt P16435),inactive: 0.033,inactive: 0,inactive: 0.003,inactive: -0.001,inactive: -0.048,inactive: 0.029,inactive: 0.008,inactive: 0.027,inactive: 0.003,inactive: 0.001
PPIP5K1 (UniProt Q6PFW1),inactive: 0.082,inactive: -0.024,inactive: 0.003,inactive: 0.003,inactive: -0.138,inactive: -0.007,inactive: 0.045,inactive: -0.045,inactive: -0.094,inactive: -0.025
